Assay: peptide synthesis
Conditions: conjugation step, SEC-HPLC (Agilent Advance Bio SEC 4.6*300 mm, isocratic, 25 min)

Compared with CKKEE-MM-huHPRT, CKKEE-MM-muExemplary Target 1 is higher in “purity (crude or final not stated)” value: 86% for the first, 91% for the second.

In the case of CKKEE-MM-muHPRT, the “purity (crude or final not stated)” value is reported as 86%.

From patent US20250213604 (published 2025)
